Read-outs that look alike come from different tables or passages of the source. These are yes or no findings as the source states them, for the method shown. Binding seen in cells or lysates may run through a third protein. A yes stands for co-enrichment or nearness to the bait. Other partners may have been found. Sequences can lack the tags named with a protein.

By UniProt entry, the sequences of proteins in these tests, tags left out.
UniProt Q9D1G1: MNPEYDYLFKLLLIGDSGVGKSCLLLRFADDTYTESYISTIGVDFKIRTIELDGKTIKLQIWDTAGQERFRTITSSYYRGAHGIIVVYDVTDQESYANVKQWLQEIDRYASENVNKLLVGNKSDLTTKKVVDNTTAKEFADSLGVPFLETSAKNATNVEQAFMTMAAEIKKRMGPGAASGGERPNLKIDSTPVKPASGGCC
UniProt P53994: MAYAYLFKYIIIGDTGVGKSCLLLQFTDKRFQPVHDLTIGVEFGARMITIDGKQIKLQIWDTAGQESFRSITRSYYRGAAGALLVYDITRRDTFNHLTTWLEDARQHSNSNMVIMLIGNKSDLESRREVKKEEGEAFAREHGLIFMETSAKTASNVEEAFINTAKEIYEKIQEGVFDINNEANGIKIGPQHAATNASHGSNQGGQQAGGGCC
UniProt P84084: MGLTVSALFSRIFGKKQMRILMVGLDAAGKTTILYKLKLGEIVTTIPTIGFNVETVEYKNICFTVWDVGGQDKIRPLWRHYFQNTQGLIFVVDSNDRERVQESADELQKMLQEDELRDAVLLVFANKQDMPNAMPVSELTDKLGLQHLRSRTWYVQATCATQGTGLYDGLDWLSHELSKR

This note sets out measurements from doi:10.1101/2024.01.08.574743.

The target of test [1] is T1, GST-DNAJ-myc-TAT (recombinant sacsin DNAJ domain, residues 4316-4420 of sacsin) (mouse | not stated) (UniProt Q9JLC8).
T1 sequence: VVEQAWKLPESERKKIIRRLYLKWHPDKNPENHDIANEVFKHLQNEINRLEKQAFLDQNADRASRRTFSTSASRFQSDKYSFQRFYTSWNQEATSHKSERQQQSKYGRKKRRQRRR
Briefly: affinity purification with mass spectrometry.

Test [2] concerns the target T1, GST-DNAJ-myc-TAT (recombinant sacsin DNAJ domain, residues 4316-4420 of sacsin) (mouse | not stated). Briefly: affinity purification with mass spectrometry. The source holds these as a separate data set.

For Rab1b (from UniProt Q9D1G1 1-201), the binding entry in test [1] is given as “binds”.
Take Rab2a (from UniProt P53994 1-212): the binding result in test [1] is on record as “binds”.
Same read-out and setting: for ARF5 (from UniProt P84084 1-180) the value was “binds”.

B1: Endophilin B2 (protein, UniProt Q8R3V5 1-400)
chain: MDFNMKKLASDAGIFFTRAVQFTEEKFGQAEKTELDAHFENLLARADSTKNWTERILRQTEVLLQPNPSARVEEFLYEKLDRKVPSRVTNGELLAQYMAEAASELGPSTPYGKTLIKVSEAEKRLGAAERDFIHTASLSFLTPLRNFLEGDWKTISKERRLLQNRRLDLDACKARLKKAKAAEAKATTVPDFQETRPRNYILSASASALWNDEVDKAEQELRVAQTEFDRQAEVTRLLLEGISSTHVNHLRCLHEFVKSQTTYYAQCYRHMLDLQKQLGSSQGAIFPGTFVGTTEPASPPLSSTSPTTTAATMPVVPTGAVLAPPEEAALCLEEVAPPASGTRKARVLYDYEAADSSELALLADELITVYSLPGMDPDWLIGERGNKKGKVPVTYLELLS
Regarding B1, in test [2], the binding entry was “binds”.
